Literature values, collected in patent publication US6712610B2, “Characterization of an antibiotic impregnated delivery system as an intracanal medicament in endodontic therapy and method” (Forsyth Dental Infirmary for Children, priority 1999, dated 2004).
For at least one compound, name, drawing or mass did not settle the structure.

System: most susceptible aerobic and micoroaerophilic bacteria
Details: most susceptible aerobic and microaerophilic bacteria

## CCC[C@@H]1C[C@@H](C(=O)N[C@@H]([C@H]2O[C@H](SC)[C@H](O)[C@@H](O)[C@H]2O)[C@H](C)Cl)N(C)C1 [clindamycin]
  minimum inhibitory concentration (MIC): 100 to 400 µg/mL
